Results published in patent US20220184082A1, “CANCER THERAPY USING 3,5-DISUBSTITUTED BENZENE ALKYNYL COMPOUND AND PEMBROLIZUMAB” (TAIHO PHARMACEUTICAL CO., LTD., priority 2019, published 2022).

Test system: mouse breast cancer cell line 4T1
Conditions: 4T1-implanted BALB/cAJcl mouse; oral daily 14 days, 15 or 30 mg/kg/day; Day 15; Student's t-test P<0.01

Compound: C=CC(=O)N1CC[C@H](n2nc(C#Cc3cc(OC)cc(OC)c3)c3c(N)ncnc32)C1 [compound 1, (S)-1-(3-(4-amino-3-((3,5-dimethoxyphenyl)ethynyl)-1H-pyrazolo[3,4-d]pyrimidin-1-yl)pyrrolidin-1-yl)prop-2-en-1-one]
- MDSCs (CD11b+/Gr-1+ cells) in the spleen lymphocyte fractions compared with non-drug administration control: significant reduction
